# Results from paper doi:10.1101/2022.04.18.488654.
# The comparison behind a weaker result is the experiment's own reference, which may not be listed here.
# Biological target: DnaD F6A (Bacillus subtilis 168CA) (UniProt P39787)
# Assay: fluorescence polarisation
# Settings: residues 1-232
sequence,measurement,value
TTTTTTTTTTTTTTTTTTTTTTTTTTTTTTTTTTTTTTTT [polyT40 (oCW837)],binding result,binds more weakly
